The test system of data set [1] is NHDF (normal human dermal fibroblasts). The experiment in a line: Determination of EC50 values, MTS assay, NHDF. Type of data set: cell-based. The settings on record: four-parametric Hill fit of the effect–dose curve. The method, then:
(§1) NHDFs were purchased from Lonza Group Ltd.—Lonza Verviers (Verviers, Belgium), and the human malignant melanoma (Me45) cell line was obtained from the Maria Skłodowska-Curie Memorial Cancer Center and National Institute of Oncology Branch Gliwice, Poland. […] During the culturing periods, cells were passaged before confluency reached 80% in culture flasks and washed regularly with PBS.
(§2) The EC50 values of genistein and its derivatives for both cell lines were determined using the MTS assay (Cell Titer 96 AQueous One Solution Cell Proliferation Assay, Promega, Madison, WI, USA). Cells were seeded in 96-well plates (5 × 10^3 cells/well) and incubated for 24 h at 37 °C in 5% CO2. Subsequently, the cells were treated with twelve concentrations of each compound ranging from 1–100 µM for 48 h at 37 °C in 5% CO2. Afterwards, the medium, including the investigated compounds, was removed from all wells and replaced with PBS. In total, 20 µL of MTS was added to each well. Plates were then incubated for 2 h at 37 °C in 5% CO2. The absorbance was measured at λ = 490 nm using an Epoch microplate reader (BioTek, Winooski, VT, USA). EC50 values were calculated using Matlab software (Matlab R2022a, MathWorks, Natick, MA, USA).
Background: Tetrazolium dyes change colour on reduction, which living cells bring about.

Data set [2] has as its system Me45 (human malignant melanoma cell line). Briefly: Determination of EC50 values, MTS assay, Me45. The format is cell-based. The settings on record: four-parametric Hill fit of the effect–dose curve. The method, then: as §1, §2

Take `CCCCCCCCCCCC(=O)Oc1ccc(-c2coc3cc(O)cc(O)c3c2=O)cc1` [4′-L-Gen, 4′-genistein dodecanate]: the “Hill Slope” value was determined as 0.5275 in data set [1] and 3.0014 in data set [2].
The corresponding values for `CCCCCOC(=O)Oc1cc(O)c2c(=O)c(-c3ccc(O)cc3)coc2c1` [Compound W5-Gen, n-pentyl-7-O-genistein carbonate] are 0.5870 and 3.1178.
As for `O=c1c(-c2ccc(O)cc2)coc2cc(O)cc(O)c12` [Gen, Genistein], the figures for the “Hill Slope” value in data set [1] and in data set [2] were 0.7206 and 0.9270, respectively.
For `O=C(OCc1ccccc1)Oc1cc(O)c2c(=O)c(-c3ccc(O)cc3)coc2c1` [WBn-Gen, bezyl-7-O-genistein carbonate], the “Hill Slope” value in data set [1] worked out at 0.5911; in data set [2] it was 2.0406.

The values above are taken from paper PMC11435217, “In Vitro Studies of Genistein Lipophilic Derivatives as Potential UV Radiation Protectors” (Pharmaceuticals, 2024).
